Measurements reported in patent publication US6670383B2, “Pyranocoumarin compounds as a novel pharmacophore with anti-TB activity” (priority 2001, dated 2003).
Some of these results come from one statement about several compounds together. At least one structure is not confirmed: it was looked up by name or label, or the drawing left a doubt.

Tested on: H37Rv strain of M. tuberculosis
Assay: BACTEC 460 radiometric system in BACTEC 12B medium: inhibition and MIC
Format: cell-based
Conditions: lowest concentration inhibiting 99% of the inoculum

With “7,8-Dihydrosoulattrolide [7,8-Dihydrosoulattrolide (5)]” the MIC (listed as compound 5) was “at the same level of (+)-calanolide A”.
`CCCc1cc(=O)oc2c3c(c4c(c12)OC(C)(C)C=C4)O[C@@H](C)[C@H](C)[C@H]3O` [(−)-Calanolide A (2), (−)-Calanolide A] was tested, and the MIC (listed as compound 2) was “at the same level of (+)-calanolide A”.
For `CCCc1cc(=O)oc2c3c(c4c(c12)OC(C)(C)C=C4)O[C@@H](C)[C@H](C)[C@@H]3O` [(−)-Calanolide B (3), (−)-Calanolide B], the MIC (listed as compound 3) was “at the same level of (+)-calanolide A”.
